# PubChem BioAssay AID504808 – Drosophila RNAi Screening Center – 2011
# Screen: 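Chromatin factors that keep E2F targets switched off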 (primary screen)
# Cell system: Drosophila S2 cells
# Reagents: long dsRNA against Drosophila genes
# Detection: 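Firefly luciferase driven by E2F sites, normalised to Renilla luciferase on the same minimal promoter, measured by plate reader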
# Direction: E2F firefly: higher = more E2F reporter activity; Renilla normaliser: higher = more normaliser reporter signal
# Call rule: 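Called active if the normalised E2F reporter went up by over 50%; the cutoff is arbitrary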
# In all, the deposit lists about 21,000 reagents; this is a random part of those that have a named target and a result. Of all reagents, 18 (0.084%) are marked active. 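Raw counts without plate normalisation, one of two replicates; the ratio scores behind the calls were not deposited.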 A plus sign joins genes that one reagent is predicted to hit. Not given: the amount of reagent, the time to read-out.
gene,amplicon,"E2F firefly, rep 1","Renilla normaliser, rep 1",Call
E2f1,DRSC16655,24025,6177,inactive
Mst57Da,DRSC16744,1.18e5,6396,inactive
Trm1,DRSC02951,84391,3735,inactive
EDTP,DRSC07409,1.33e5,4932,inactive
RyR,DRSC07543,1.52e5,5184,inactive
Sema2b,DRSC05609,1.46e5,6578,inactive
Sema2b,DRSC05611,1.57e5,5963,inactive
Sema2b,DRSC06867,1.40e5,4509,inactive
kipf,DRSC15446,1.36e5,6174,inactive
Abp1,DRSC09693,1.19e5,5606,inactive
CG7514,DRSC08597,99243,4023,inactive
bic,DRSC07584,2602,198,inactive
CG31007,DRSC14029,82231,2659,inactive
Ythdc1,DRSC08141,69063,3120,inactive
lcs,DRSC20580,1.40e5,6616,inactive
qua,DRSC03598,89145,3851,inactive
LKRSDH,DRSC03015,95241,3867,inactive
CG1648,DRSC06610,73184,3961,inactive
CG4836,DRSC15659,63293,3212,inactive
Syx7,DRSC11763,72238,3694,inactive
Fic,DRSC03247,90132,3834,inactive
Cyp4g15,DRSC20240,1.57e5,6868,inactive
Cpr67Fb,DRSC10314,1.12e5,5948,inactive
PIG-F,DRSC11069,1.45e5,6409,inactive
EMC2B,DRSC15506,1.14e5,7176,inactive
hbt,DRSC02503,92562,3950,inactive
Clic,DRSC19364,8168,848,inactive
CG3589,DRSC04392,86288,3004,inactive
eIF3f1,DRSC12328,92036,6350,inactive
Gr64d + Gr64e,DRSC08446,97280,3783,inactive
CG15435,DRSC00450,1.56e5,5139,inactive
rut,DRSC20367,1.08e5,3715,inactive
lap,DRSC12628,69506,3681,inactive
CG14196,DRSC19551,1.24e5,7295,inactive
her,DRSC03543,85665,3748,inactive
Moca-cyp,DRSC15364,1875,900,inactive
CG18420,DRSC01954,87064,4205,inactive
BG642163,DRSC00342,1.62e5,5265,inactive
BG642163,DRSC00343,1.47e5,4923,inactive
xit,DRSC18364,8107,760,inactive
yellow-e3,DRSC15170,1.34e5,7012,inactive
LysP,DRSC08676,1.01e5,4316,inactive
bond,DRSC16135,56437,3012,inactive
CG8468,DRSC07190,88428,3861,inactive
Cad86C,DRSC15587,1.38e5,6788,inactive
Cad86C,DRSC15611,1.26e5,6452,inactive
tkv + CR14033 + tRNA:Asp-GTC-2-1 + 1 more,DRSC00861,1.35e5,5095,inactive
CG5112,DRSC15718,1887,1404,inactive
Pngl,DRSC04914,1.11e5,4792,inactive
CG4372,DRSC04466,96467,4412,inactive
Tspo,DRSC00533,89649,3805,inactive
CG18557,DRSC00524,1.51e5,5454,inactive
cnn,DRSC05422,1.37e5,4927,inactive
cnn,DRSC07596,94131,4021,inactive
ClC-c,DRSC10499,67993,3482,inactive
OtopLa,DRSC17787,1.08e5,5066,inactive
OtopLa,DRSC18133,1.19e5,5498,inactive
GstZ1,DRSC16478,62740,3302,inactive
CG2861,DRSC18229,1.17e5,6697,inactive
tefu,DRSC16060,99251,5712,inactive
yps,DRSC11411,1.38e5,6554,inactive
mib1,DRSC10550,1.76e5,8134,inactive
Rtnl1,DRSC00851,1.32e5,6100,inactive
Rtnl1,DRSC02684,86538,3382,inactive
Rtnl1,DRSC03122,90904,3920,inactive
CG7369,DRSC11822,66462,3203,inactive
CG13545,DRSC04187,1.03e5,4398,inactive
CG10916,DRSC06012,71113,3331,inactive
Fnta,DRSC00557,93981,3238,inactive
CG17026,DRSC10237,1.58e5,7189,inactive
Rfx,DRSC16820,1.18e5,5225,inactive
CG9727,DRSC12585,73978,3241,inactive
park + Targ3,DRSC11617,82146,3482,inactive
CG8173,DRSC20088,1.52e5,6906,inactive
asRNA:CR42547 + CG15674,DRSC04264,1.07e5,3705,inactive
CAHbeta,DRSC14449,80936,3748,inactive
Fam92,DRSC02952,78448,3602,inactive
Ire1,DRSC15606,1.54e5,7423,inactive
CG33308,DRSC01419,1.22e5,6304,inactive
Dnaaf6,DRSC10473,1.61e5,8416,inactive
Mon1,DRSC00336,1.57e5,5104,inactive
CG33465,DRSC05587,1.23e5,4043,inactive
Ercc1,DRSC07424,2457,214,inactive
CG15255,DRSC01869,1.02e5,4893,inactive
CG1371,DRSC06409,2796,192,inactive
CG5946,DRSC10560,1.08e5,3601,inactive
Ir76a,DRSC10987,70637,3459,inactive
CG14569,DRSC11730,1.48e5,6734,inactive
CG42663,DRSC06158,84860,3976,inactive
CG42663,DRSC06404,89936,4259,inactive
inaD,DRSC04694,1.04e5,4429,inactive
Taz,DRSC07704,1.04e5,4443,inactive
mRpL54,DRSC04545,76287,3565,inactive
Alp11,DRSC20080,1.58e5,6294,inactive
His-Psi:CR31616 + His-Psi:CR31615,DRSC03760,73812,4575,inactive
CG14391,DRSC14850,1.52e5,5562,inactive
slo,DRSC17057,72175,3946,inactive
Prosalpha7,DRSC07516,2913,92,inactive
Myo28B1,DRSC03375,1.68e5,5320,inactive
CG15927,DRSC19742,1.26e5,5570,inactive
CG4374,DRSC15570,97448,5314,inactive
CG4558,DRSC18369,7368,616,inactive
CG17362,DRSC10267,1.43e5,5929,inactive
Vajk1,DRSC01882,1.06e5,4635,inactive
CG16727,DRSC15139,1.49e5,8144,inactive
CG31517,DRSC13010,80866,2448,inactive
Arl2,DRSC14117,1.34e5,7254,inactive
